# Source: US6242564A (priority 1992, dated 2001)
# At least one peptide structure holds a part that was inferred or is arguable (an end, a ring closure or a residue).
# Tested on: T4 antigen (gp 120 receptor) on rat hippocampal membranes
# Experiment: Displacement of specific 125I-gp 120 binding to fresh rat hippocampal (brain) membranes
# Details: FIG. 2c
# Method: ETLV-IIIb isolate of HIV was propaged in H9 cells, and the gp 120 was isolated by immunoaffinity chromatography and preparative NaDodSO4 /PAGE. Purified gp 120 was labeled with 125 by the chloramine-T method.
# Fresh human, monkey, and rat hippocampus were quickly homogenized (POLYTRON, Brinkmann Instruments) in 100 vol. of ice-cold 50 mM Hepes (pH 7.4). The membranes collected by centrifugation (15,000×g) were washed in the original buffer volume and were used fresh or stored at -70° C. Before use, brain membranes and highly purified T cells were preincubated for 15-30 min in phosphate-buffered saline (PBS). Preincubated membranes derived from 2 mg (initial we weight) of brain (α100 μg of protein) were incubated with 28,000 cpm of 125I -gp 120 for 1 hour at 37° C. in 200 μl (final volume) of 50 mM Hepes containing 0.1% bovine serum albumin and the peptidase inhibitors bacitracin (0.005%), aprotinin (0.005%), leupeptin (0.001%), and chymostatin (0.001%). Incubations were rapidly vacuum-filtered and counted to determine the receptor-bound material.
# Each determination was performed in triplicate; the results of one experiment, which was performed three times with similar results, is shown. Specific binding (FIG. 2b) displaceable by 10 μg/ml of OKT4 and 4A ranged between 27 and 85% of total binding, which was 2,201±74 cpm in the experiment shown.
smiles,measurement,value
N=C(N)NCCC[C@H](N)C(=O)N1CCC[C@H]1C(=O)N[C@@H](CCCCN)C(=O)N1CCC[C@H]1C(=O)N[C@@H](CCC(N)=O)C(=O)N[C@@H](CCC(N)=O)C(=O)N[C@@H](Cc1ccccc1)C(=O)N[C@@H](Cc1ccccc1)C(=O)O [substance P [1-8]],Inhibition / displacement of specific 125I-gp 120 binding (in words),but not
